# This continues a long series; more values of the same kind are listed elsewhere.
# Test system: New Zealand White rabbits
# Assay: Intraocular pressure (IOP) in rabbits, topical dosing four times daily
# Type: in vivo
# Settings: treated right eyes, P.M. readings
# Description: Seventy-five rabbits underwent two weeks of IOP training to condition them for IOP measurement. IOP was determined for both eyes of each animal using a Medtronic Solan, Model 30 classic pneumatonometer. Proparacaine hydrochloride 0.5% (1 drop) was delivered to each eye prior to IOP measurement. A two-point diurnal curve was established: IOP was recorded on Monday, Wednesday, and Friday of each week, at 8 a.m. and 12 p.m., with a ±1 hour range for each of these times. The time of the measurements was recorded.
# On Days 1-31, animals received daily topical doses of the appropriate test article into the right eye. Animals were dosed four times per day, with doses administered 2 hours apart. Doses were administered using a calibrated 50-μL pipette. The eyelids were held close for 10 seconds immediately following dosing. The time of each dose administration was recorded.
# Intraocular pressure (“IOP”) was determined for both eyes of each animal on Days 3, 5, 10, 12, 16, 18, 22, 24, 26, 30, and 32. IOP was evaluated with a Medtronic Solan, Model 30 classic pneumatonometer. Proparacaine hydrochloride 0.5% (1 drop) was delivered to each eye prior to IOP measurement. IOP was measured on Monday, Wednesday, and Friday of each week. A two-point diurnal curve was established: IOP was recorded at 8 a.m. and 12 p.m. on Day 3, and at 8 a.m. and 2 p.m. on later days, with a ±1 hour range for each of these times. The time of the measurements was recorded.
# Descriptive statistics were prepared for IOP data of each treatment group (left and right eyes separately) at each measurement interval. The statistics included the number of observations (“N”), mean, standard deviation (“STD”), and standard error (“SEM”). Statistical analyses were conducted on IOP results using Statistical Analysis Systems (SAS Institute, Inc., Cary, N.C., V8.0). Parameters were evaluated using analysis of variance/GLM Procedure followed by Tukey's Standardized Range Test (Tukey, 1985) for post hoc comparisons of group means. The level of significance was set at a probability of p<0.05 for all statistical procedures. Group IOP means were compared at each interval, with left and right eyes compared separately.
compound,measurement,setting,value
Cc1ccc2c(NCC(O)(CC(C)(C)c3cc(F)cc4c3OCC4)C(F)(F)F)cccc2n1 (centres unmarked),Intraocular Pressure (MEAN),"Day 30, 1 mg/g (Group D)",21.8 mmHg
same,Intraocular Pressure (MEAN),"Day 30, 5 mg/g (Group C)",22.4 mmHg
same,Intraocular Pressure (MEAN),"Day 32, 1 mg/g (Group D)",22.9 mmHg
same,Intraocular Pressure (MEAN),"Day 32, 5 mg/g (Group C)",22.7 mmHg
same,Intraocular Pressure (MEAN),"Day 32, 10 mg/g (Group B)",23.3 mmHg
same,Intraocular Pressure (MEAN),"Pre-Study, 1 mg/g (Group D)",24.2 mmHg
same,Intraocular Pressure (MEAN),"Pre-Study, 5 mg/g (Group C)",24.5 mmHg
same,Intraocular Pressure (MEAN),"Pre-Study, 10 mg/g (Group B)",24.0 mmHg

# Source: US20080058373A1, “Compositions and Methods for Treating or Preventing Glaucoma or Progression Thereof” (priority 2006, published 2008)
